In the supplement of paper PMC10849652:
The other results are listed elsewhere or left out.

Chains of the proteins cited; added tags and fusions are not shown. Lines headed by an entry give the natural chain unless they say otherwise; changes in a name come on top.
UniProt Q9UPT9: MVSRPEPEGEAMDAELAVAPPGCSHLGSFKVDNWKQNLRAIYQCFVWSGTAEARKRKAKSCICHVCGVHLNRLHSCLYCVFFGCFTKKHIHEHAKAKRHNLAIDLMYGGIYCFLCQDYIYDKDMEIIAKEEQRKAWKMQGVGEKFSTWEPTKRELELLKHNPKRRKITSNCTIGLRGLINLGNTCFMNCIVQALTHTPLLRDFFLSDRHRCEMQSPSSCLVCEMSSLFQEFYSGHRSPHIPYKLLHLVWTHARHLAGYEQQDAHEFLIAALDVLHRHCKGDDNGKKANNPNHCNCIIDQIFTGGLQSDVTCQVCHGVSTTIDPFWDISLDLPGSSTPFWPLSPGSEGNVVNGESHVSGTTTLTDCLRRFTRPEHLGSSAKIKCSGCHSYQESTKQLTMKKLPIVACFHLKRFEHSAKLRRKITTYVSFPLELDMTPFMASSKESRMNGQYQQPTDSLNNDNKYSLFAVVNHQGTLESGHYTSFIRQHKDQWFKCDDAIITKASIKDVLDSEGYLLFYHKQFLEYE
UniProt O94782: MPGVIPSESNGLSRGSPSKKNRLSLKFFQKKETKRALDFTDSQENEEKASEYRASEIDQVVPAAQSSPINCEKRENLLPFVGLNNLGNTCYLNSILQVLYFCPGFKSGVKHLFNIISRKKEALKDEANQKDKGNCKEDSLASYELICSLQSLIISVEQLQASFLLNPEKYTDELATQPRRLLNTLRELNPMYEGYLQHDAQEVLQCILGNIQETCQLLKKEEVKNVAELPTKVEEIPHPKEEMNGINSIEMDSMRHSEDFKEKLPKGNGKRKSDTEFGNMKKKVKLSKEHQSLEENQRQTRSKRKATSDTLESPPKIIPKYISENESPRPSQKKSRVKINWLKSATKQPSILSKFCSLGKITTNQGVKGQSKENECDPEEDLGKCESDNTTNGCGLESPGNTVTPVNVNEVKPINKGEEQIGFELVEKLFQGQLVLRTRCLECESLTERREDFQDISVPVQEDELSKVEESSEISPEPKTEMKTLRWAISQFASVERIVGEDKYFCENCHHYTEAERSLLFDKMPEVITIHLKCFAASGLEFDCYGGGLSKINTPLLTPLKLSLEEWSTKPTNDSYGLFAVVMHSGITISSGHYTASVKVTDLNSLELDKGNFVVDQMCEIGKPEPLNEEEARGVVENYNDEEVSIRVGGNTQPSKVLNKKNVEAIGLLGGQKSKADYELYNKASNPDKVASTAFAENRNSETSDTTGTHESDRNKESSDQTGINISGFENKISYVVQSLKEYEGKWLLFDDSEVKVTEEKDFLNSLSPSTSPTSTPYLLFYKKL
UniProt Q8NB14: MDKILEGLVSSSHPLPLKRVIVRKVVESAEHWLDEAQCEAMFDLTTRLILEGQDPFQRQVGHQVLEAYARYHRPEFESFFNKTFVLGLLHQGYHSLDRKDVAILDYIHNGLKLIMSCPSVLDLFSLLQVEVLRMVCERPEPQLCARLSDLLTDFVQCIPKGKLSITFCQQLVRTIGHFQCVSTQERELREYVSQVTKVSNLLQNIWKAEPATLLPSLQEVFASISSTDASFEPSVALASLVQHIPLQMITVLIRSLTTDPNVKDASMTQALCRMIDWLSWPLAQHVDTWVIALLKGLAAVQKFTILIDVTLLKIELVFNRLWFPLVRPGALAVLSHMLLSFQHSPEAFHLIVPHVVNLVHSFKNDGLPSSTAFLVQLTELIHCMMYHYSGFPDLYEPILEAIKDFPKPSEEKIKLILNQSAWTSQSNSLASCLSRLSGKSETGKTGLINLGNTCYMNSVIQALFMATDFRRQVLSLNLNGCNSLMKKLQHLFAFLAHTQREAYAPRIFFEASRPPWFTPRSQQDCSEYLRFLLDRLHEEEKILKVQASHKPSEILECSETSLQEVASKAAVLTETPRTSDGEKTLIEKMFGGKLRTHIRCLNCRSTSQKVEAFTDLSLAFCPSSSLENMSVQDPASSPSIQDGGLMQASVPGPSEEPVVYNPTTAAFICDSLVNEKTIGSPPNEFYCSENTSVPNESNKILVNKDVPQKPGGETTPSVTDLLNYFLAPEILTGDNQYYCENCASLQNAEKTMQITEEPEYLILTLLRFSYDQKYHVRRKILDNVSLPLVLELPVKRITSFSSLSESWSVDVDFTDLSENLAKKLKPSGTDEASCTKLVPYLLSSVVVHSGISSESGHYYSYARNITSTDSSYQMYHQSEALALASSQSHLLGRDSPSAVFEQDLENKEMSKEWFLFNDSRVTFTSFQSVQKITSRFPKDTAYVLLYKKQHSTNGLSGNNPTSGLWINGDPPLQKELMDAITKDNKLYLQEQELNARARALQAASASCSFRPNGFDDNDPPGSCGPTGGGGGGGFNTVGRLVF
UniProt Q8TEY7: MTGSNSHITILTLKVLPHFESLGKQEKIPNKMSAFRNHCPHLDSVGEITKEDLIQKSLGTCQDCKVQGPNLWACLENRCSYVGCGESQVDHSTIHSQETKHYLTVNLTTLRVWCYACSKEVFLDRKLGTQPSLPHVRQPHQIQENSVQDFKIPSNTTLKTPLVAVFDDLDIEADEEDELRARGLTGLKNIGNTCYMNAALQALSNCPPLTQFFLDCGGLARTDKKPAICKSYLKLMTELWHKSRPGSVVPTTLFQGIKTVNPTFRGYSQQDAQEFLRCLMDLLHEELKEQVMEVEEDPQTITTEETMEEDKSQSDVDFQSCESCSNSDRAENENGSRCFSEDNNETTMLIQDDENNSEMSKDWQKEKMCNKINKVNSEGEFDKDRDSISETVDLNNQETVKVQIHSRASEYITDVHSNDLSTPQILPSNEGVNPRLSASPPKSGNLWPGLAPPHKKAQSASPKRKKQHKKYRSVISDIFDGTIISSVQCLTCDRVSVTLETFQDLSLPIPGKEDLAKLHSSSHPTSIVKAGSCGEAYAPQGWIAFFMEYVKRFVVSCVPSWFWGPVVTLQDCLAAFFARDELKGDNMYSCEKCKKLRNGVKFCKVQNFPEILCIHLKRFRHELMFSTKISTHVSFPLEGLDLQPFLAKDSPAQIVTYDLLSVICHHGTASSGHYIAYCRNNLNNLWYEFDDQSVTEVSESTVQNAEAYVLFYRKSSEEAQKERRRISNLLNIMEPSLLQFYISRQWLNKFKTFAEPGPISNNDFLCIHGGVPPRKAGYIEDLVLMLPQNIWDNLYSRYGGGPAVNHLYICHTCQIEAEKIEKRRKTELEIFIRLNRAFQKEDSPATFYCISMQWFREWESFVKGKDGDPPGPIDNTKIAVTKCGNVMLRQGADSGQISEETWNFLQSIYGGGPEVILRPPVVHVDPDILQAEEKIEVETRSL
UniProt Q9P275: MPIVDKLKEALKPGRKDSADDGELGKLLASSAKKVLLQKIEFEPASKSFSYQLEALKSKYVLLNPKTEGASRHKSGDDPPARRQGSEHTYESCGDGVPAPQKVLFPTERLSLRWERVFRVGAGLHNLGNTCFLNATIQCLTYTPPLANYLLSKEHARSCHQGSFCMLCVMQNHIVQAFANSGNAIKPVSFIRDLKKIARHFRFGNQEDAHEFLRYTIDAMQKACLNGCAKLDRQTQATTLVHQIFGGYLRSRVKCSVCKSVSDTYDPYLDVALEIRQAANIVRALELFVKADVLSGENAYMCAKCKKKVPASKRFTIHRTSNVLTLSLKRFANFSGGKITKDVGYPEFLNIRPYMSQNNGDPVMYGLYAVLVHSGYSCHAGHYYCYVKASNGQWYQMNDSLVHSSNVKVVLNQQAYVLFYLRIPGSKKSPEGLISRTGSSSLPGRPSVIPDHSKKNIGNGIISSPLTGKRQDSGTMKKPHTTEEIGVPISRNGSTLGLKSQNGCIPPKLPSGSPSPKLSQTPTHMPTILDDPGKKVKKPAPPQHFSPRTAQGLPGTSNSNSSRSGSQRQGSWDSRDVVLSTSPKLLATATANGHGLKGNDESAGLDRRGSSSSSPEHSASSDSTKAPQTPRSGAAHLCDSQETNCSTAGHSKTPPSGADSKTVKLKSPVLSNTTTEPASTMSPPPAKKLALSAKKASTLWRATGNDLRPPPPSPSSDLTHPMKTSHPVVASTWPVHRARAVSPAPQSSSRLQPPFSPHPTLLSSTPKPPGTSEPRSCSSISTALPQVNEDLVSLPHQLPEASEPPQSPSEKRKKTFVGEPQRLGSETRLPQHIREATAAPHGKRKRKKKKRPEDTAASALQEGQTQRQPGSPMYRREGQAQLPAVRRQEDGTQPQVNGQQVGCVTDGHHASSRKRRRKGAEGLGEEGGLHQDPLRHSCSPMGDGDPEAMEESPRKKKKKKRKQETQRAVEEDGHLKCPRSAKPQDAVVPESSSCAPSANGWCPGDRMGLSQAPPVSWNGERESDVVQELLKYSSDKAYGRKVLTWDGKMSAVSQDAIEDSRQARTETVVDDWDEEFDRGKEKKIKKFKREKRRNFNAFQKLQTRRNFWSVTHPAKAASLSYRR
UniProt C9J7I0: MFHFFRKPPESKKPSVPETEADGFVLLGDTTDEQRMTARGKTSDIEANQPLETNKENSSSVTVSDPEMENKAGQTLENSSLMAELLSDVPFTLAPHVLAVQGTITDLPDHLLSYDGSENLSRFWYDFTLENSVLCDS
UniProt P13051, whole entry, looked up: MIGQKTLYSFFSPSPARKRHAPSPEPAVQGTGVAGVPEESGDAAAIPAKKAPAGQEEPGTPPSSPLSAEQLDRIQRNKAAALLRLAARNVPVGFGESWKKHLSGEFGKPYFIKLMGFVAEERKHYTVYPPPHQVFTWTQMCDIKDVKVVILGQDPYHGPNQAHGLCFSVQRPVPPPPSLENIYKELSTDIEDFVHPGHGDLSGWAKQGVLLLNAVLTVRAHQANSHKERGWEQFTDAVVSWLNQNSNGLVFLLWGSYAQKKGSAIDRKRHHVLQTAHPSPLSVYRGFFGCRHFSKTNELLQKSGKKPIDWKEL
UniProt Q9BQ65: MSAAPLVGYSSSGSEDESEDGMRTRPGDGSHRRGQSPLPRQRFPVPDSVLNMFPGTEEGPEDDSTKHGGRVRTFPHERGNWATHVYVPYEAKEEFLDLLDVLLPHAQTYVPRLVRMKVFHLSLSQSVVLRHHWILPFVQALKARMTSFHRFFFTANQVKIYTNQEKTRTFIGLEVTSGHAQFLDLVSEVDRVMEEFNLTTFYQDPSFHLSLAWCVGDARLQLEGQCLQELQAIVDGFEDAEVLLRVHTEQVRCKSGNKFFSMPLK
UniProt P52735: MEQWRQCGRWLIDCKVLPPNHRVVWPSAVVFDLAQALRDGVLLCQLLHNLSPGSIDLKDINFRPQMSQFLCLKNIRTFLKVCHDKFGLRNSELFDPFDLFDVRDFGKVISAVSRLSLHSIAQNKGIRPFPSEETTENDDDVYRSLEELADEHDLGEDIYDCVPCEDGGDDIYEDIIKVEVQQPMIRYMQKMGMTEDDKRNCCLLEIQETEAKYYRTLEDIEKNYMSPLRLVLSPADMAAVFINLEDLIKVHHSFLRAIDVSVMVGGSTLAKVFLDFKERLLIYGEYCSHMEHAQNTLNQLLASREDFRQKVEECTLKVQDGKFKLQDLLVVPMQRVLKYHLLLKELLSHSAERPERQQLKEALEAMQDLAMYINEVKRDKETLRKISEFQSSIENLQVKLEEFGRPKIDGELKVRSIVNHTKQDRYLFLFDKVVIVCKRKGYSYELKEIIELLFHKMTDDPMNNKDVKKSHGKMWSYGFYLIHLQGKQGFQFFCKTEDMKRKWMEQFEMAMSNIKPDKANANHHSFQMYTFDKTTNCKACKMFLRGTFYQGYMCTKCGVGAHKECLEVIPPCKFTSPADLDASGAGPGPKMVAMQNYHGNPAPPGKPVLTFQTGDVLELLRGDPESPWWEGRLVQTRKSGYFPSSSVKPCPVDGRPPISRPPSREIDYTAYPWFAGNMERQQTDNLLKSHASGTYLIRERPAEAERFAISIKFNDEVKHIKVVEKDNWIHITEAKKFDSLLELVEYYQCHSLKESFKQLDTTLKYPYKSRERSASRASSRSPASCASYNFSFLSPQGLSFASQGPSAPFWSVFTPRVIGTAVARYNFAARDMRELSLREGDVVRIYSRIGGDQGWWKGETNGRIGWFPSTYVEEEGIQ
UniProt Q9UDW1: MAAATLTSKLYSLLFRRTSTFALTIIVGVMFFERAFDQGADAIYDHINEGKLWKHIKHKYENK
UniProt Q9H1J1: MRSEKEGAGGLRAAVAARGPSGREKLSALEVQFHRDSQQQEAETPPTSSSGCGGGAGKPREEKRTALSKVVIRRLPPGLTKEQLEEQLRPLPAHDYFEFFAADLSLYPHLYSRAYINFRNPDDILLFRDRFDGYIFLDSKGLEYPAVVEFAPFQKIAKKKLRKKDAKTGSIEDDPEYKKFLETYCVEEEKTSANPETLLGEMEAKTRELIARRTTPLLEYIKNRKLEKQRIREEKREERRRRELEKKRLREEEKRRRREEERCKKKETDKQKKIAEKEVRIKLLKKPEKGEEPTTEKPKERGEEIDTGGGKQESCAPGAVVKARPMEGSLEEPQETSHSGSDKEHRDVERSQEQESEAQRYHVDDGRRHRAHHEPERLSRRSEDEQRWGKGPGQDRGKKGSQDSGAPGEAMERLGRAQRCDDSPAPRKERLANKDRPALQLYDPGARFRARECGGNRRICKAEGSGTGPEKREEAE

What was measured:
Assay in all cases: log2 fold change, soluble protein after heating vs DMSO (PISA); higher = thermal stabilisation; K562 lysate, 10 uM; active = over 0.2 and 3.5 SD of the protein, either way, in both replicates (recomputed)
[1] = compound: C1=CC=C(C=C1)[C@H](COC2=CC3=C(C=C2)NC(=O)N3)NC(=O)C4=CC=CN(C4=O)CC5=CC(=C(C=C5)F)F
How it was run: (§1)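 The values are log-two fold changes in thermal stability compared with solvent controls and come from duplicates. They were obtained by TMTpro 16plex LC-MS/MS, with channel sums equalised, on the supernatant after 21,000xg for 90 min. That supernatant came from crude K562 extract at 1 mg/mL protein treated with 10 μM compound for 30 min, heated for 3 min across 48°C-58°C, pooled and brought to 0.5% NP-40 at 4°C.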

[2] = compound: CC1=C(SC2=C1C(=N[C@H](C3=NN=C(N32)C)CC(=O)N)C4=CC=C(C=C4)Cl)C
How it was run: as §1

[3] = compound: CC1=C2C(=CC=C1)N=C(N(C2=O)C3=CC=CC=C3C)CN4C=NC5=C(N=CN=C54)N
How it was run: as §1

[4] = compound: Cc1sc2c(c1C)C(c1ccc(Cl)cc1)=N[C@@H](CC(=O)OC(C)(C)C)c1nnc(C)n1-2
How it was run: as §1

[5] = compound: c1ccc([C@@H]2C[C@H]2NC2CCNCC2)cc1
How it was run: as §1

Measured: log2 fold change

USP22 (UniProt Q9UPT9)
inactive: [1] 0.039 | [2] -0.025 | [3] 0.012 | [4] 0.045 | [5] 0.055

USP1 (UniProt O94782)
inactive: [1] 0.047 | [2] 0.009 | [3] 0.002 | [4] 0.009 | [5] 0.005

UNC5B (UniProt Q8IZJ1)
inactive: [1] -0.028 | [2] -0.042 | [3] 0.13 | [4] -0.049 | [5] 0.184

UTP20 (UniProt O75691)
inactive: [1] 0.017 | [2] -0.012 | [3] 0.103 | [4] 0.021 | [5] 0.035

UQCC3 (UniProt Q6UW78)
inactive: [1] -0.01 | [2] 0.025 | [3] 0.26 | [4] -0.022 | [5] -0.451

USP34 (UniProt Q70CQ2)
inactive: [1] -0.002 | [2] -0.015 | [3] 0 | [4] -0.004 | [5] 0.073

USP28 isoform 2 (UniProt Q96RU2)
inactive: [1] -0.032 | [2] 0.003 | [3] 0.019 | [4] 0.028 | [5] -0.009

VHL (UniProt P40337)
inactive: [1] 0.165 | [2] 0.004 | [3] -0.029 | [4] -0.178 | [5] 0.08

UQCRH (UniProt P07919)
inactive: [1] -0.012 | [2] -0.069 | [3] 0.001 | [4] -0.026 | [5] -0.011

VAPA (UniProt Q9P0L0)
inactive: [1] -0.031 | [2] -0.035 | [3] 0.003 | [4] 0.124 | [5] 0.085

USO1 (UniProt O60763)
inactive: [1] 0.059 | [2] 0.078 | [3] -0.041 | [4] 0.031 | [5] -0.159

USP38 (UniProt Q8NB14)
inactive: [1] 0.028 | [2] 0.071 | [3] -0.1 | [4] -0.03 | [5] -0.01

UNC119B (UniProt A6NIH7)
inactive: [1] -0.044 | [2] -0.034 | [3] 0.095 | [4] -0.198 | [5] -0.058

UGT8 (UniProt Q16880)
inactive: [1] 0.122 | [2] 0.073 | [3] 0.057 | [4] 0.045 | [5] 0

USP11 (UniProt P51784)
inactive: [1] -0.04 | [2] -0.079 | [3] 0.013 | [4] 0.009 | [5] -0.036

VCX3B (UniProt Q9H321)
inactive: [1] -0.037 | [2] 0.037 | [4] -0.079 | [5] -0.059

USP33 (UniProt Q8TEY7)
inactive: [4] -0.182 | [5] -0.219

USP36 (UniProt Q9P275)
inactive: [3] 0.056 | [5] 0.066

UTP23 (UniProt Q9BRU9)
inactive: [1] -0.095 | [2] 0.11 | [4] 0.025 | [5] 0.14

UMAD1 (UniProt C9J7I0)
inactive: [4] -0.003 | [5] 0.064

UNG (UniProt P13051)
inactive: [1] -0.036 | [2] -0.026 | [4] 0.144 | [5] -0.036

USP6NL isoform 2 (UniProt Q92738)
inactive: [3] -0.073 | [5] -0.045

USB1 (UniProt Q9BQ65)
inactive: [3] -0.131 | [4] 0 | [5] 0.123

VAV2 (UniProt P52735)
inactive: [3] -0.063 | [4] -0.247

UCP2 (UniProt P55851)
inactive: [3] -0.003

UHRF2 (UniProt Q96PU4)
inactive: [3] 0.559

USP15 isoform 3 (UniProt Q9Y4E8)
inactive: [4] 0.005

UNC13B isoform 2 (UniProt O14795)
inactive: [3] 0.122 | [4] -0.009

URB2 (UniProt Q14146)
inactive: [3] -0.048 | [4] 0.018 | [5] -0.017

USP19 isoform 4 (UniProt O94966)
inactive: [3] 0.068 | [4] -0.133

USP40 isoform 3 (UniProt Q9NVE5)
inactive: [4] 0

UQCRB (UniProt E5RHG9)
inactive: [4] 0.1

VASN (UniProt Q6EMK4)
inactive: [4] -0.017

UQCR10 (UniProt Q9UDW1)
inactive: [3] 0.018 | [4] 0.084 | [5] -0.053

USP37 (UniProt Q86T82)
inactive: [3] 0.087

ULK1 (UniProt O75385)
inactive: [3] 0.021 | [4] 0.061 | [5] 0.035

UTRN isoform 2 (UniProt P46939)
inactive: [1] 0.026 | [2] 0.037 | [5] 0.062

UPF3A (UniProt Q9H1J1)
inactive: [1] -0.17 | [2] 0.142 | [5] 0.034

Two records picked at random from those above, as already listed:
UQCR10 (UniProt Q9UDW1)
inactive: [3] 0.018 | [4] 0.084 | [5] -0.053

UPF3A (UniProt Q9H1J1)
inactive: [1] -0.17 | [2] 0.142 | [5] 0.034

(further entries)

USP12 (UniProt O75317)
inactive: [3] 0.007 | [5] -0.151
